Structures can show the parent of a compound that is named as a salt. This is one part of the list. Hit calls seldom repeat between salt and free forms of one compound.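 In K562 cells expressing nanoluciferase-fused kinases, luminescence was recorded at 4 h intervals between 2 and 18 h, normalized as percent of control with DMSO at 100% and a positive control at 0%. A significant (2 sigma) signal drop marks a time point as decreased. The authors' rule for a hit is not shown and takes in more than the number of time points.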
Assays:
Experiment in all cases: kinase-Nluc reporter destabilization hit call (1 = scored as downregulated) (binary); higher = compound decreases kinase abundance
Conditions in all cases: K562; 2-18 h
[1] = target: CDK7 (UniProt P50613)
[2] = target: CDK9 (UniProt P50750)
[3] = target: CHEK2 (UniProt O96017)
[4] = target: CSF1R (UniProt P07333)
[5] = target: CSK (UniProt P41240)
[6] = target: CSNK1A1 (UniProt P48729)
[7] = target: CSNK1D (UniProt P48730)
[8] = target: DDR1 (UniProt Q08345)
[9] = target: DYRK1B (UniProt Q9Y463)
[10] = target: DYRK2 (UniProt Q92630)
[11] = target: EGFR (UniProt P00533)
[12] = target: EGFR_G719S (UniProt P00533)
[13] = target: EGFR_G719S_T790M (UniProt P00533)
[14] = target: EGFR_L718V (UniProt P00533)
[15] = target: EGFR_L858R (UniProt P00533)
[16] = target: EGFR_L861Q (UniProt P00533)
[17] = target: EGFR_T790M (UniProt P00533)
[18] = target: EPHA2 (UniProt P29317)
[19] = target: ERBB3 (UniProt P21860)
[20] = target: ERBB4_R711C (clone: ERBB4_mut) (UniProt Q15303)

Protein sequences, listed by entry. Tags and fused reporters are not part of them. Lines headed by an entry give the natural chain unless they say otherwise; changes in a name come on top.
UniProt P50613: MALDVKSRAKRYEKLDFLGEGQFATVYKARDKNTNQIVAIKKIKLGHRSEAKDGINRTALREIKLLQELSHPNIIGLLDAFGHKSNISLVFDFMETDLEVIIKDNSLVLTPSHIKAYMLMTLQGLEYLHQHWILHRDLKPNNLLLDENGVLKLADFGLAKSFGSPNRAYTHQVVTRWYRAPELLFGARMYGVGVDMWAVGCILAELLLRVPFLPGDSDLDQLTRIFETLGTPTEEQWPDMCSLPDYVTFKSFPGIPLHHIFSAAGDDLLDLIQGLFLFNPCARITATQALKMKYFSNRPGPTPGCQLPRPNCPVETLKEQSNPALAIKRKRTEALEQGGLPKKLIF
UniProt P50750, whole entry: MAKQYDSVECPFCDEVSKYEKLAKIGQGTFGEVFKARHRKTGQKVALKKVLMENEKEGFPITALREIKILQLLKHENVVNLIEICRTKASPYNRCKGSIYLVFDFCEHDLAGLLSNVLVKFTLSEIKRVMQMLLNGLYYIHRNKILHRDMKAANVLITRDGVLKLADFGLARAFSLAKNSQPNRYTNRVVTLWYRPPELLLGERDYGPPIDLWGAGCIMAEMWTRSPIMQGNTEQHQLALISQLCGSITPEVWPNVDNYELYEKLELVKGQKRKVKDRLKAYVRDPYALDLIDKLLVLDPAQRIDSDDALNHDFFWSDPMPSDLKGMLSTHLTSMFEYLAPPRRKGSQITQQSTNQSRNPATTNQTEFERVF
UniProt O96017, whole entry: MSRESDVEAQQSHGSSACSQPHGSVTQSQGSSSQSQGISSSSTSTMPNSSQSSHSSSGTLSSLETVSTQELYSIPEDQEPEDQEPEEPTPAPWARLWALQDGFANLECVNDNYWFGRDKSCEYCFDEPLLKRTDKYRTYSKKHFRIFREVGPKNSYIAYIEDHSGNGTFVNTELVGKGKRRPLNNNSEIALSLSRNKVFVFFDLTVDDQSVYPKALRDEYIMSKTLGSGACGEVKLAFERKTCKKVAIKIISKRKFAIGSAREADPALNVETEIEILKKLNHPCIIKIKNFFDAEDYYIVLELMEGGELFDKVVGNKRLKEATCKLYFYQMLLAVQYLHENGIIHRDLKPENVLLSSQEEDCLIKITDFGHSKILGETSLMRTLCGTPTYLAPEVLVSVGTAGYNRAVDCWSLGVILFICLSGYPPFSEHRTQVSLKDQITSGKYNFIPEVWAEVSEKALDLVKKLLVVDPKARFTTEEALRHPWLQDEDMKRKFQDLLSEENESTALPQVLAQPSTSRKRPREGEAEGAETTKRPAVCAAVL
UniProt P07333, whole entry: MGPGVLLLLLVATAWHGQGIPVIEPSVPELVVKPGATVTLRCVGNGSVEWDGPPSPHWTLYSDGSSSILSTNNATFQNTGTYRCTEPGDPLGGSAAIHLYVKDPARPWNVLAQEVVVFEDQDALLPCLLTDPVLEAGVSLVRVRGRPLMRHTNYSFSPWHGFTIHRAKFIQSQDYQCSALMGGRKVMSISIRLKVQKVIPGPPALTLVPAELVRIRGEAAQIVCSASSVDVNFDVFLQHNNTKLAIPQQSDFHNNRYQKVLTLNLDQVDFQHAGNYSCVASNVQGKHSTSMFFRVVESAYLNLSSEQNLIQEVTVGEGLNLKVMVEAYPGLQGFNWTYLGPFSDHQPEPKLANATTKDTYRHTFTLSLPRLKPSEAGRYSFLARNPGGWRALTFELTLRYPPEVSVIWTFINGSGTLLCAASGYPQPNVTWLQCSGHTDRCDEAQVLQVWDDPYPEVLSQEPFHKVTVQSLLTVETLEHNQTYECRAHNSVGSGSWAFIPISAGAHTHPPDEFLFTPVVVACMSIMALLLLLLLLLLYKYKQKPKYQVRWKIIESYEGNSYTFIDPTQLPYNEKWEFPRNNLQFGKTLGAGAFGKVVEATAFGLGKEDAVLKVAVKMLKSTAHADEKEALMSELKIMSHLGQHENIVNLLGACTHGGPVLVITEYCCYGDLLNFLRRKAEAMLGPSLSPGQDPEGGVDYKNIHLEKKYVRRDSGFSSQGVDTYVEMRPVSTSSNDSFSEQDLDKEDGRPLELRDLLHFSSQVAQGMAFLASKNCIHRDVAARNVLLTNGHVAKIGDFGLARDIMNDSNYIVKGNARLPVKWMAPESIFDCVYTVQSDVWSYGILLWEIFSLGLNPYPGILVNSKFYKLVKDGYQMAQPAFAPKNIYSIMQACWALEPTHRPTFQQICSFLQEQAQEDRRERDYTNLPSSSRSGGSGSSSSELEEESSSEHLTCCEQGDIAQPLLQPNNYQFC
UniProt P41240: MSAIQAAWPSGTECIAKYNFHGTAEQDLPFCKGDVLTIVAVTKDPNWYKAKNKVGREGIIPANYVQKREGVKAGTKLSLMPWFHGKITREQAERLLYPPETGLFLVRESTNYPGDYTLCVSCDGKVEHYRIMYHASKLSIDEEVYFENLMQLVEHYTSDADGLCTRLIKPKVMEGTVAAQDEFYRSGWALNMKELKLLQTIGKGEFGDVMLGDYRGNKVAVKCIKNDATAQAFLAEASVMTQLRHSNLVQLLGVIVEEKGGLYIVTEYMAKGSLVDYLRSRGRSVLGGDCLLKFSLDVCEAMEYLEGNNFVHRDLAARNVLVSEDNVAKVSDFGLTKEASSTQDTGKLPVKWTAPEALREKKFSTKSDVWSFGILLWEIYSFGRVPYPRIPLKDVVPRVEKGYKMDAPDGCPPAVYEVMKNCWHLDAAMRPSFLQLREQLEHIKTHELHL
UniProt P48729: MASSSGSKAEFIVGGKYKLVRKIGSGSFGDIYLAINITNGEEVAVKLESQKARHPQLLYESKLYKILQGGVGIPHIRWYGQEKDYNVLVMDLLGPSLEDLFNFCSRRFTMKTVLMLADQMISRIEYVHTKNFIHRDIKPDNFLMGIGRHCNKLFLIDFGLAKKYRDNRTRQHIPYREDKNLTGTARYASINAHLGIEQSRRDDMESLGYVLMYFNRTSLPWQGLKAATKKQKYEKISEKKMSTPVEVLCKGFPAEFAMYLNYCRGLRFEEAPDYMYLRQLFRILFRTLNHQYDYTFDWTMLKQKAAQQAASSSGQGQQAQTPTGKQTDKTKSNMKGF
UniProt P48730: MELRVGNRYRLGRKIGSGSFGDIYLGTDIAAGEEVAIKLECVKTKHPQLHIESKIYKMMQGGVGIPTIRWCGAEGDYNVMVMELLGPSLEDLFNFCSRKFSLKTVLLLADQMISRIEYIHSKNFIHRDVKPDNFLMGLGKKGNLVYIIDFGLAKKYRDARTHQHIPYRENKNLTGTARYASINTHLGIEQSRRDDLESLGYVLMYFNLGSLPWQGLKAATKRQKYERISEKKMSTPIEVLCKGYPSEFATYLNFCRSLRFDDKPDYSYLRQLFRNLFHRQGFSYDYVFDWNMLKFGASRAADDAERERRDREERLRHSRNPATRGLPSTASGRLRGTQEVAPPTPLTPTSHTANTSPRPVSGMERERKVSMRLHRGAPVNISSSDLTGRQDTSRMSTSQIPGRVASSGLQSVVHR
UniProt Q08345: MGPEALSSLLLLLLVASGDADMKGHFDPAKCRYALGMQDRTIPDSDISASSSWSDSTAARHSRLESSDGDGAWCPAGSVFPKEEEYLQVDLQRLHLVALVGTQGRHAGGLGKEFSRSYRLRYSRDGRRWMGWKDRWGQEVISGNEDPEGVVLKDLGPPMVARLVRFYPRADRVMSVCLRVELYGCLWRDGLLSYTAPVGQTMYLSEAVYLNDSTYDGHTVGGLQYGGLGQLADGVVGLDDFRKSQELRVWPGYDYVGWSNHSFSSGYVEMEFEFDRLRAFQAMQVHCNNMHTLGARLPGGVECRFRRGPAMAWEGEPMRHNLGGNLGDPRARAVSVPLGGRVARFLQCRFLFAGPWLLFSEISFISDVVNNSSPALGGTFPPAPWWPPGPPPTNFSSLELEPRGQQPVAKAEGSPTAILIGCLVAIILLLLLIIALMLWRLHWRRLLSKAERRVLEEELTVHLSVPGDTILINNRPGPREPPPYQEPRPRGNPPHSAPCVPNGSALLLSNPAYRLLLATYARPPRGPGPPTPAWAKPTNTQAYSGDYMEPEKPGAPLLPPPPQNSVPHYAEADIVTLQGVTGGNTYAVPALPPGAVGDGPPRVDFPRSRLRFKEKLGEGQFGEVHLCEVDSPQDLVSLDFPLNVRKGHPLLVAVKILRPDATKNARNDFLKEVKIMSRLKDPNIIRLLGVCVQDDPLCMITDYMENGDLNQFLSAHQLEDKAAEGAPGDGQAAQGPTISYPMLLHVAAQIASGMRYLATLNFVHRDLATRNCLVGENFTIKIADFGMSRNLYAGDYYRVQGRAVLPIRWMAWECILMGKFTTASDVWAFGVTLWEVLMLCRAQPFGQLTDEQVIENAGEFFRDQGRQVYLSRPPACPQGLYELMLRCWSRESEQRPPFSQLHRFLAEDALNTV
UniProt Q92630: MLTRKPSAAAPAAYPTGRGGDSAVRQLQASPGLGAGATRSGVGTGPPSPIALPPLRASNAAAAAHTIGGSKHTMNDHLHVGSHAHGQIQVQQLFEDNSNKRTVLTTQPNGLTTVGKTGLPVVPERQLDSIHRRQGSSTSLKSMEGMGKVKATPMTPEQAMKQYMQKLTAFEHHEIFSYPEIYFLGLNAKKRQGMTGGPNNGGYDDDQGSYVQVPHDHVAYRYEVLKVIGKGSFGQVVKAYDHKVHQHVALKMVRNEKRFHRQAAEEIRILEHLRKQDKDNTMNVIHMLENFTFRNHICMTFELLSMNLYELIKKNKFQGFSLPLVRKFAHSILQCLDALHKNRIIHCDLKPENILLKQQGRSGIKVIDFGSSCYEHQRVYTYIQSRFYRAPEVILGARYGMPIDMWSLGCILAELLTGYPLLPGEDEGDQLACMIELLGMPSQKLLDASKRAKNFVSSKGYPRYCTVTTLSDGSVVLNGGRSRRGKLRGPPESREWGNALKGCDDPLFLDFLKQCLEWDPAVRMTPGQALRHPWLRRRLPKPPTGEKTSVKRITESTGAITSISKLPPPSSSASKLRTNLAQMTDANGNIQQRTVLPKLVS
UniProt Q15303, whole entry R711C: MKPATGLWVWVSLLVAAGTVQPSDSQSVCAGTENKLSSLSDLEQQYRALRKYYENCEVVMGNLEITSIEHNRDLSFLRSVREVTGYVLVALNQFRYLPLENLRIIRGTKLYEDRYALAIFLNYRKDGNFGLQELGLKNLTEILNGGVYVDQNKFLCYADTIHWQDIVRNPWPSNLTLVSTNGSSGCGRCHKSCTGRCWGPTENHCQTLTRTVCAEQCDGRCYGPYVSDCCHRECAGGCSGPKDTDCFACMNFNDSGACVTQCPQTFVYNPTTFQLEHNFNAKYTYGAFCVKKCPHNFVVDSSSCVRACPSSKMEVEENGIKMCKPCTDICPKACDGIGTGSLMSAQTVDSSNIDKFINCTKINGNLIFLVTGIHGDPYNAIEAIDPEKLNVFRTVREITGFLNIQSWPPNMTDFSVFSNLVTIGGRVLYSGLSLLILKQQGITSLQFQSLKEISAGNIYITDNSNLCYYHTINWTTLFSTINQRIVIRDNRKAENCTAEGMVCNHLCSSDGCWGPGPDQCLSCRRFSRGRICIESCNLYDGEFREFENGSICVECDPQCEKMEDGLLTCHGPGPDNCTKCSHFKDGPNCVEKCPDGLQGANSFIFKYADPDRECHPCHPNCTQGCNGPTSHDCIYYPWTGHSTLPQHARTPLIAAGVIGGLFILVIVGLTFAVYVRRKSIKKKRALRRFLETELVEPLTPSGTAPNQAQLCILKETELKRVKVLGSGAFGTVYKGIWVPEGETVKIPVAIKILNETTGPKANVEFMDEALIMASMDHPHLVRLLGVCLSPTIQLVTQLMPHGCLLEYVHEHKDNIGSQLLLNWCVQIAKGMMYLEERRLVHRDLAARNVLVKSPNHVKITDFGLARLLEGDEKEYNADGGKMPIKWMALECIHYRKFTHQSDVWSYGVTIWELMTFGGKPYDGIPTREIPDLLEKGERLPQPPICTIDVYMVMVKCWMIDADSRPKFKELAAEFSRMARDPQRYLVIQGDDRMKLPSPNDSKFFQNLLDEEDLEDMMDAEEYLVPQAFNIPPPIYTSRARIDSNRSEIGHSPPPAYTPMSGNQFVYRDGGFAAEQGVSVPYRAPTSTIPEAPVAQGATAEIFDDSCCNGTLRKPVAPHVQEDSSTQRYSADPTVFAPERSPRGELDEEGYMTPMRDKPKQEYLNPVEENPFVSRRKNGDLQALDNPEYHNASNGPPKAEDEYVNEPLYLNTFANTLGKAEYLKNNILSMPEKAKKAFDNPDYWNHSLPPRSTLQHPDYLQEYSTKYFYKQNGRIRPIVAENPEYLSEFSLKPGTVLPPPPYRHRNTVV

Row | Compound | kinase-Nluc reporter destabilization hit call [1] | kinase-Nluc reporter destabilization hit call [2] | kinase-Nluc reporter destabilization hit call [3] | kinase-Nluc reporter destabilization hit call [4] | kinase-Nluc reporter destabilization hit call [5] | kinase-Nluc reporter destabilization hit call [6] | kinase-Nluc reporter destabilization hit call [7] | kinase-Nluc reporter destabilization hit call [8] | kinase-Nluc reporter destabilization hit call [9] | kinase-Nluc reporter destabilization hit call [10] | kinase-Nluc reporter destabilization hit call [11] | kinase-Nluc reporter destabilization hit call [12] | kinase-Nluc reporter destabilization hit call [13] | kinase-Nluc reporter destabilization hit call [14] | kinase-Nluc reporter destabilization hit call [15] | kinase-Nluc reporter destabilization hit call [16] | kinase-Nluc reporter destabilization hit call [17] | kinase-Nluc reporter destabilization hit call [18] | kinase-Nluc reporter destabilization hit call [19] | kinase-Nluc reporter destabilization hit call [20]
1 | CN(C)Cc1cccc(N=C(c2ccccc2)c2c(O)[nH]c3cc(C(N)=O)ccc23)c1 (10 µM) | inactive: 0 | inactive: 0 | inactive: 0 | inactive: 0 | inactive: 0 | inactive: 0 | inactive: 0 | inactive: 0 | inactive: 0 | inactive: 0 | inactive: 0 | inactive: 0 | inactive: 0 | inactive: 0 | inactive: 0 | inactive: 0 | inactive: 0 | inactive: 0 | inactive: 0 | inactive: 0
2 | CCCC(=O)Nc1nc2c(ncn2[C@@H]2O[C@@H]3COP(=O)(O)O[C@H]3[C@H]2OC(=O)CCC)c(=O)[nH]1 [Dibutyryl-cGMP (sodium)] (10 µM) | inactive: 0 | inactive: 0 | inactive: 0 | inactive: 0 | inactive: 0 | inactive: 0 | inactive: 0 | inactive: 0 | inactive: 0 | inactive: 0 | inactive: 0 | inactive: 0 | inactive: 0 | inactive: 0 | inactive: 0 | inactive: 0 | inactive: 0 | inactive: 0 | inactive: 0 | inactive: 0
3 | CC(C)c1cnn2c(NCc3ccccc3-n3cccn3)nc(OC3CCCNC3)nc12 (stereo not given) (2.5 µM) | inactive: 0 | inactive: 0 | inactive: 0 | inactive: 0 | inactive: 0 | inactive: 0 | inactive: 0 | inactive: 0 | inactive: 0 | inactive: 0 | inactive: 0 | inactive: 0 | inactive: 0 | inactive: 0 | inactive: 0 | inactive: 0 | inactive: 0 | inactive: 0 | inactive: 0 | inactive: 0
4 | O=C(NOCCO)c1ccc2cncn2c1Nc1ccc(I)cc1F (10 µM) | inactive: 0 | inactive: 0 | inactive: 0 | inactive: 0 | inactive: 0 | inactive: 0 | inactive: 0 | inactive: 0 | inactive: 0 | inactive: 0 | inactive: 0 | inactive: 0 | inactive: 0 | inactive: 0 | inactive: 0 | inactive: 0 | inactive: 0 | inactive: 0 | inactive: 0 | inactive: 0
5 | O=C(Nc1ccc(Cl)c(Cl)c1)Nc1ccc2nnsc2c1 (10 µM) | inactive: 0 | inactive: 0 | inactive: 0 | inactive: 0 | inactive: 0 | inactive: 0 | inactive: 0 | inactive: 0 | inactive: 0 | inactive: 0 | inactive: 0 | inactive: 0 | inactive: 0 | inactive: 0 | inactive: 0 | inactive: 0 | inactive: 0 | inactive: 0 | inactive: 0 | inactive: 0
6 | COc1ccc(CN2C3CC2CN(c2ccc(-c4cc(OCC(C)(C)O)cn5ncc(C#N)c45)cn2)C3)cn1 [Selpercatinib] (10 µM) | inactive: 0 | inactive: 0 | inactive: 0 | inactive: 0 | inactive: 0 | inactive: 0 | inactive: 0 | inactive: 0 | inactive: 0 | inactive: 0 | inactive: 0 | inactive: 0 | inactive: 0 | inactive: 0 | inactive: 0 | inactive: 0 | inactive: 0 | inactive: 0 | inactive: 0 | inactive: 0
7 | CN1CCN(CCCNc2ncc(Cl)c(-c3cc4c(C(=O)NC5CC5)cccc4s3)n2)CC1 (10 µM) | inactive: 0 | inactive: 0 | inactive: 0 | inactive: 0 | inactive: 0 | inactive: 0 | inactive: 0 | inactive: 0 | inactive: 0 | inactive: 0 | inactive: 0 | inactive: 0 | inactive: 0 | inactive: 0 | inactive: 0 | inactive: 0 | inactive: 0 | inactive: 0 | inactive: 0 | inactive: 0
8 | CN1C(=O)NC(Cc2c[nH]c3c(Cl)cccc23)C1=O (racemic) [Necrostatin 2 (racemate)] (10 µM) | inactive: 0 | inactive: 0 | inactive: 0 | inactive: 0 | inactive: 0 | inactive: 0 | inactive: 0 | inactive: 0 | inactive: 0 | inactive: 0 | inactive: 0 | inactive: 0 | inactive: 0 | inactive: 0 | inactive: 0 | inactive: 0 | inactive: 0 | inactive: 0 | inactive: 0 | inactive: 0
9 | C[C@@H]1COCCN1c1cc(C2([S@](C)(=N)=O)CC2)nc(-c2cc[nH]c3nccc2-3)n1 [Ceralasertib] (2.5 µM) | inactive: 0 | inactive: 0 | inactive: 0 | inactive: 0 | inactive: 0 | inactive: 0 | inactive: 0 | inactive: 0 | inactive: 0 | inactive: 0 | inactive: 0 | inactive: 0 | inactive: 0 | inactive: 0 | inactive: 0 | inactive: 0 | inactive: 0 | inactive: 0 | inactive: 0 | inactive: 0
10 | C=CC(=O)Nc1cccc(-n2c(=O)cc(C)c3cnc(Nc4ccc(OCCN(C)C)cc4OC)nc32)c1 (10 µM) | inactive: 0 | inactive: 0 | inactive: 0 | inactive: 0 | inactive: 0 | inactive: 0 | inactive: 0 | inactive: 0 | inactive: 0 | inactive: 0 | inactive: 0 | inactive: 0 | inactive: 0 | inactive: 0 | inactive: 0 | inactive: 0 | inactive: 0 | inactive: 0 | inactive: 0 | active: 1
11 | O=C(O)CCc1ccc(NCc2cccc(Oc3ccccc3)c2)cc1 (10 µM) | inactive: 0 | inactive: 0 | inactive: 0 | inactive: 0 | inactive: 0 | inactive: 0 | inactive: 0 | inactive: 0 | inactive: 0 | inactive: 0 | inactive: 0 | inactive: 0 | inactive: 0 | inactive: 0 | inactive: 0 | inactive: 0 | inactive: 0 | inactive: 0 | inactive: 0 | inactive: 0
12 | CCc1c(C)sc(NC(=S)NC(=O)c2ccc(Cl)cc2)c1C(N)=O (10 µM) | inactive: 0 | inactive: 0 | inactive: 0 | inactive: 0 | inactive: 0 | inactive: 0 | inactive: 0 | inactive: 0 | inactive: 0 | inactive: 0 | inactive: 0 | inactive: 0 | inactive: 0 | inactive: 0 | inactive: 0 | inactive: 0 | inactive: 0 | inactive: 0 | inactive: 0 | inactive: 0
13 | O=Nc1c(-c2c(O)[nH]c3ccccc23)[nH]c2ccccc12 [Indirubin-3'-monoxime] (2.5 µM) | inactive: 0 | inactive: 0 | inactive: 0 | inactive: 0 | inactive: 0 | inactive: 0 | inactive: 0 | inactive: 0 | inactive: 0 | inactive: 0 | inactive: 0 | inactive: 0 | inactive: 0 | inactive: 0 | inactive: 0 | inactive: 0 | inactive: 0 | inactive: 0 | inactive: 0 | inactive: 0
14 | CC(=O)Nc1nc(C)c(-c2nc(N3CCCC(O)C3)no2)s1 (stereo not given) (10 µM) | inactive: 0 | inactive: 0 | inactive: 0 | inactive: 0 | inactive: 0 | inactive: 0 | inactive: 0 | inactive: 0 | inactive: 0 | inactive: 0 | inactive: 0 | inactive: 0 | inactive: 0 | inactive: 0 | inactive: 0 | inactive: 0 | inactive: 0 | inactive: 0 | inactive: 0 | inactive: 0
15 | COc1c(O)cc2oc3cc(O)c(CC=C(C)C)c(O)c3c(=O)c2c1CCC(C)(C)O [Garcinone D] (2.5 µM) | inactive: 0 | inactive: 0 | inactive: 0 | inactive: 0 | inactive: 0 | inactive: 0 | inactive: 0 | inactive: 0 | inactive: 0 | inactive: 0 | inactive: 0 | inactive: 0 | inactive: 0 | inactive: 0 | inactive: 0 | inactive: 0 | inactive: 0 | inactive: 0 | inactive: 0 | inactive: 0
16 | CCCNC(=O)c1cn2ncnc(Nc3cc(C(=O)NC4CC4)ccc3C)c2c1C (10 µM) | inactive: 0 | inactive: 0 | inactive: 0 | inactive: 0 | inactive: 0 | inactive: 0 | inactive: 0 | inactive: 0 | inactive: 0 | inactive: 0 | inactive: 0 | inactive: 0 | inactive: 0 | inactive: 0 | inactive: 0 | inactive: 0 | inactive: 0 | inactive: 0 | inactive: 0 | inactive: 0
17 | CCCCOc1ccc(CC/C=C2\SC(=O)N(CCN)C2=O)cc1 [K145 (hydrochloride)] (2.5 µM) | inactive: 0 | inactive: 0 | inactive: 0 | inactive: 0 | inactive: 0 | inactive: 0 | inactive: 0 | inactive: 0 | inactive: 0 | inactive: 0 | inactive: 0 | inactive: 0 | inactive: 0 | inactive: 0 | inactive: 0 | inactive: 0 | inactive: 0 | inactive: 0 | inactive: 0 | inactive: 0
18 | Nc1cc(C(F)F)c(-c2nc(N3C4CCC3COC4)nc(N3C4CCC3COC4)n2)cn1 (2.5 µM) | inactive: 0 | inactive: 0 | inactive: 0 | inactive: 0 | inactive: 0 | inactive: 0 | inactive: 0 | inactive: 0 | inactive: 0 | inactive: 0 | inactive: 0 | inactive: 0 | inactive: 0 | inactive: 0 | inactive: 0 | inactive: 0 | inactive: 0 | inactive: 0 | inactive: 0 | inactive: 0

An excerpt from above in order of number of heavy atoms, rising:
Row | Compound | kinase-Nluc reporter destabilization hit call [1] | kinase-Nluc reporter destabilization hit call [2] | kinase-Nluc reporter destabilization hit call [3] | kinase-Nluc reporter destabilization hit call [4] | kinase-Nluc reporter destabilization hit call [5] | kinase-Nluc reporter destabilization hit call [6] | kinase-Nluc reporter destabilization hit call [7] | kinase-Nluc reporter destabilization hit call [8] | kinase-Nluc reporter destabilization hit call [9] | kinase-Nluc reporter destabilization hit call [10] | kinase-Nluc reporter destabilization hit call [11] | kinase-Nluc reporter destabilization hit call [12] | kinase-Nluc reporter destabilization hit call [13] | kinase-Nluc reporter destabilization hit call [14] | kinase-Nluc reporter destabilization hit call [15] | kinase-Nluc reporter destabilization hit call [16] | kinase-Nluc reporter destabilization hit call [17] | kinase-Nluc reporter destabilization hit call [18] | kinase-Nluc reporter destabilization hit call [19] | kinase-Nluc reporter destabilization hit call [20]
13 | O=Nc1c(-c2c(O)[nH]c3ccccc23)[nH]c2ccccc12 [Indirubin-3'-monoxime] (2.5 µM) | inactive: 0 | inactive: 0 | inactive: 0 | inactive: 0 | inactive: 0 | inactive: 0 | inactive: 0 | inactive: 0 | inactive: 0 | inactive: 0 | inactive: 0 | inactive: 0 | inactive: 0 | inactive: 0 | inactive: 0 | inactive: 0 | inactive: 0 | inactive: 0 | inactive: 0 | inactive: 0
12 | CCc1c(C)sc(NC(=S)NC(=O)c2ccc(Cl)cc2)c1C(N)=O (10 µM) | inactive: 0 | inactive: 0 | inactive: 0 | inactive: 0 | inactive: 0 | inactive: 0 | inactive: 0 | inactive: 0 | inactive: 0 | inactive: 0 | inactive: 0 | inactive: 0 | inactive: 0 | inactive: 0 | inactive: 0 | inactive: 0 | inactive: 0 | inactive: 0 | inactive: 0 | inactive: 0
2 | CCCC(=O)Nc1nc2c(ncn2[C@@H]2O[C@@H]3COP(=O)(O)O[C@H]3[C@H]2OC(=O)CCC)c(=O)[nH]1 [Dibutyryl-cGMP (sodium)] (10 µM) | inactive: 0 | inactive: 0 | inactive: 0 | inactive: 0 | inactive: 0 | inactive: 0 | inactive: 0 | inactive: 0 | inactive: 0 | inactive: 0 | inactive: 0 | inactive: 0 | inactive: 0 | inactive: 0 | inactive: 0 | inactive: 0 | inactive: 0 | inactive: 0 | inactive: 0 | inactive: 0

Reference: the supplement of paper PMC12823440, “Inhibitors supercharge kinase turnover through native proteolytic circuits” (Nature, 2025)
